Among the data in paper PMC9703636 are binding values, retold here.

Positions count from the first letter of the chain named. Results are given in words; binding and its absence hold for the method and conditions named. For part of these data: A result given as binding can be weak or reduced; the word gives no strength.

Holding throughout (experiment): two-hybrid; AH109 yeast; baits in pGBT9, prey OCA7 in pGAD424; growth on SD -L-W-H shows interaction, growth with 3-amino-1,2,4-triazole stronger interaction; 72 h at 30 °C
Assay [1] has as its target T1, Rab38 WT in pGBT9, yeast two-hybrid bait (UniProt P57729).
T1 sequence: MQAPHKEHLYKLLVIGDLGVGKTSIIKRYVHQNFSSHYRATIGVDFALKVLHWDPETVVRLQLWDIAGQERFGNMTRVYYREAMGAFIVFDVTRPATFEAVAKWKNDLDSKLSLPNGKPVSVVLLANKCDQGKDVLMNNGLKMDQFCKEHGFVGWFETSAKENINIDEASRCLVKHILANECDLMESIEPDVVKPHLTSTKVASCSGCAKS

The target in assay [2] is T2, Rab32 Q85L, Y95A (switch 2 mutant) in pGBT9 (UniProt Q13637).
T2 sequence: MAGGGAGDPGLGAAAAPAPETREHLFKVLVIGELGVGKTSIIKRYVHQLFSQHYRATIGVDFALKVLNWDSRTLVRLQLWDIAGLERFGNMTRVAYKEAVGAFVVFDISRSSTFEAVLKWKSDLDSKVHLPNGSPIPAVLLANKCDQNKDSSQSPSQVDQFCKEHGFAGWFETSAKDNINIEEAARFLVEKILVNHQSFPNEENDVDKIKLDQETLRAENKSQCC

For assay [3], the target named is T3, AP1M1 in pGBT9, yeast two-hybrid bait (human) (UniProt Q9BXS5).
T3 sequence: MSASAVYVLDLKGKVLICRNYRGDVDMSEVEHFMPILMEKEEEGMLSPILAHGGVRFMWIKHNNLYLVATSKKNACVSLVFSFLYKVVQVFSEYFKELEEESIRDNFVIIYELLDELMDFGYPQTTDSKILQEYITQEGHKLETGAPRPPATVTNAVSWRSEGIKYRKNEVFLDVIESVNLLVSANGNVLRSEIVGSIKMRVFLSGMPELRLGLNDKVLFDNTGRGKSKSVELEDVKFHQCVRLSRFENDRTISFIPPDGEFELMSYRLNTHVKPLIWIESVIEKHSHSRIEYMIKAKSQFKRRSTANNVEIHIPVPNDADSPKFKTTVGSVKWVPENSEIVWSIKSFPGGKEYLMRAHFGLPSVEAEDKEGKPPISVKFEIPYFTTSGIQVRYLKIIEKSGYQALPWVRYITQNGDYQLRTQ

Assay [4] deals with T4, Rab32 WT in pGBT9, yeast two-hybrid bait (UniProt Q13637).
T4 sequence: T2 sequence with L85Q, A95Y

Assay [5] deals with T5, RabIF in pGBT9, yeast two-hybrid bait (human) (UniProt P47224).
T5 sequence: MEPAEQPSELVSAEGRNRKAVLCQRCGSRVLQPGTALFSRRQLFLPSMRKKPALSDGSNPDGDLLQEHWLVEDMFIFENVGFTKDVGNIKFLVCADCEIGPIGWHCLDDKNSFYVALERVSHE

In assay [6] the target is T6, Rab32 Q85L (constitutively active, GTP locked) in pGBT9 (UniProt Q13637).
T6 sequence: T2 sequence with A95Y

For “OCA7 (oculocutaneous albinism type 7 protein) in pGAD424, yeast two-hybrid prey (human)”, the binding result in assay [1] was “binds”; in assay [2], “no binding”; in assay [3], “no binding”; in assay [4] it was “binds”; in assay [5], “no binding”; in assay [6] it was “binds”.
